No constants are given. Whether binding was seen depends on the method and setting. For part of these data: A result given as binding can be weak or reduced; the word gives no strength.

Holding throughout (test): fluorescence polarisation; FITC-labelled peptide at 0.5-1 µM, 1:2 serial dilution of PPTR-2; FP buffer (50 mM NaP pH 7.5, 150 mM NaCl, 0.5 mM TCEP); 30 min; 384-well plate, PheraStar FS; both purified
Test [1] has as its target T1, BUB-1 LxxIxE motif peptide (FITC-Ahx-…) (C. elegans).
T1 sequence (peptide, FITC-Ahx on the N-terminus): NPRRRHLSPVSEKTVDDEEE

Test [2] addresses T2, pBUB-1 LxxIxE motif peptide, phosphorylated at Ser 283 (FITC-Ahx-NPRRRHLph…) (C. elegans).
T2 sequence (peptide, FITC-Ahx on the N-terminus; phosphoserine at 283): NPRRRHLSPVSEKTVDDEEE

Test [3] has as its target T3, LAVA peptide, BUB-1 LxxIxE motif with L282A,V285A (FITC-Ahx-…) (C. elegans).
T3 sequence (peptide, FITC-Ahx on the N-terminus): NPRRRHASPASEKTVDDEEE

On to “PPTR-2 (purified recombinant) (C. elegans)”, for which the binding result is on record as “binds” in test [1], “binds” in test [2] and “no binding” in test [3].

For the origin of these results see article PMC7787666, “BUB-1 targets PP2A:B56 to regulate chromosome congression during meiosis I in C. elegans oocytes” (eLife, 2020).
